Test results: PubChem BioAssay AID1671190 (National Center for Advancing Translational Sciences (NCATS), 2021)
“And” between values parts separate entries of the source, which are not always exact repeats. Identical values can stand only once. Hit rate of the full screen: of about 580,000 compounds, about 6,100 (1.1%) were called active. The shares of active, inactive and inconclusive entries below differ from those in the screen. The call rests on the fitted dose curve; in most records, active means well fitted inhibition curve with a large enough effect; inconclusive means small, poorly fitted or top-dose-only effect, or another doubt; inactive means no such curve, though single readings can be large or run the other way. Potencies of inconclusive entries are doubtful fits and often do not repeat.

Chains of the proteins cited; added tags and fusions are not shown. Lines headed by an entry give the natural chain unless they say otherwise; changes in a name come on top.
UniProt P18054: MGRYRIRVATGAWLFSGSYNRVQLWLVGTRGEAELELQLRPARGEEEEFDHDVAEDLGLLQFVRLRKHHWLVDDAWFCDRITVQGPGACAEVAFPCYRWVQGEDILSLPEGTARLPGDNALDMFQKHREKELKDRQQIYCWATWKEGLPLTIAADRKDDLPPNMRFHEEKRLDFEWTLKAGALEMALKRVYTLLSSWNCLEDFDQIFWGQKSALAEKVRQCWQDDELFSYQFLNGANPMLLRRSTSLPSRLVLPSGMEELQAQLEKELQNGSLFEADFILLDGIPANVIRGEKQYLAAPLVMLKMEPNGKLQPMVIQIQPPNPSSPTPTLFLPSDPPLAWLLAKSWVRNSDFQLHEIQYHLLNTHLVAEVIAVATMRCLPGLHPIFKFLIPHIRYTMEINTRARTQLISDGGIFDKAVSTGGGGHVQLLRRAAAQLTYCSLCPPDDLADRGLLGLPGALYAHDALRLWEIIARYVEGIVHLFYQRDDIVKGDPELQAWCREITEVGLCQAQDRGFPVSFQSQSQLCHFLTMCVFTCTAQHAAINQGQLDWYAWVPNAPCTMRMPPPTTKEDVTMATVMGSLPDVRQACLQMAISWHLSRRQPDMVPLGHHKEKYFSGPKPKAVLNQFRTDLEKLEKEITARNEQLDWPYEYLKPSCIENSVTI

Target: Polyunsaturated fatty acid lipoxygenase ALOX12 (Homo sapiens) (UniProt P18054)
Experiment: Primary qHTS assay for inhibitors of human arachidonate 12S-lipoxygenase (ALOX12): Round 2
Settings: purified 12hLO, xylenol orange hydroperoxide absorbance; activity change, negative = inhibition: at 108 µM (top of the series) unless noted
Summary of the method: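 Purified human 12hLO at 150 nM in 25 mM Hepes, 0.01% Triton X-100, pH 7.0, preincubated 15 min at room temperature with compound. Reaction started with 40 uM arachidonic acid, 30 min at room temperature. Hydroperoxide measured by Fe-xylenol orange, 573/405 nm absorbance ratio.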
On the % scale 0 is the no-effect control and ±100 the full control effect; potency means the concentration at half of the fitted maximal effect.

How did the Potency turn out when `O=C(O)COCc1nc2ccccc2[nH]1` was run?
The Potency was inconclusive: 39.8 µM [inhibitor, partial curve, poor fit].

With `Cn1nc(C(F)(F)F)c(/C=N/OC(=O)c2ccccc2Cl)c1SCc1ccccc1Cl` as the compound, how does the activity change, negative = inhibition read?
Its activity change, negative = inhibition is inconclusive: -34% [inhibitor].

`CN1CCN(c2ccc([N+](=O)[O-])c(-n3nc(-c4ccccc4)c4ccccc4c3=O)c2)CC1` was tested. Which Potency did it give?
The Potency was inconclusive: 56.2 µM [inhibitor, partial curve, poor fit].

`CCOC(=O)c1cc(OC(=O)c2ccc(C)cc2)n(-c2ccccc2)n1` was tested. Which “activity change, negative = inhibition” value did it give?
Its value is inactive: 0%.

For `COC(=O)/C(C#N)=C/c1c(Oc2cccc(C)c2C)nc2ccccn2c1=O`, which Potency is on record?
Its Potency is inconclusive: 112 µM [inhibitor, single point].

Which Potency does the source give for `CN(C)c1ccc(-c2nc(-n3ccnc3)c3ccccc3n2)cc1` here?
Its Potency is inconclusive: 112 µM [inhibitor, single point].

Which “activity change, negative = inhibition” value does the source give for `CCc1ccc(NC(=S)Nc2cccc3cnccc23)cc1` here?
Its value is inactive: 14%.

How did the Potency turn out when `Brc1cccc(/C=N/Nc2ccc3ccccc3c2)c1` was run?
The Potency was active: 5.62 µM.

Which “activity change, negative = inhibition” value does the source give for `CCN1C(=O)C2(CCN(C(=O)c3c(C)noc3C)CC2)c2ccccc21` here?
The value was inactive: 3.47%.

`COc1cccc(CN2CCC(C(=O)Nc3ccc(-c4cccc(C)c4)cc3)CC2)c1O` was tested. Which Potency did it give?
Its Potency is inconclusive: 44.7 µM [inhibitor, partial curve, poor fit].

`COc1ccc(NC(=O)c2ccco2)cc1NC(=O)COc1ccccc1` was tested. Which Potency did it give?
Its Potency is inconclusive: 3.55 µM [inhibitor, single point].

How did the Potency turn out when `COC(=O)C(/C=N/OCc1ccc([N+](=O)[O-])cc1)NC(=O)c1cccc(Cl)c1` (configuration not stated) was run?
The Potency was inconclusive: 50.1 µM [inhibitor, partial curve, poor fit].

For `Cc1cc(/C=C(\C#N)C(=O)Nc2ccccc2)c(C)n1-c1ccc(C(=O)O)cc1`, which Potency is on record?
The Potency was inconclusive: 63.1 µM [inhibitor, partial curve, poor fit].

Which “activity change, negative = inhibition” value does the source give for `CCOC(=O)c1ccc(NC(=O)c2c(NCc3cccs3)sc3c2CCCC3)cc1` here?
Its value is inactive: -28.7%.

How did the “activity change, negative = inhibition” value turn out when `COc1ccccc1NC(=O)c1ccc(CN2CCOCC2)cc1` was run?
The value was inactive: 4.15%.

`O=C(CCS(=O)(=O)c1ccc(Br)cc1)NC1CCCCCC1` was tested. Which Potency did it give?
Its Potency is inconclusive: 44.7 µM [inhibitor, partial curve, poor fit].

For `CC1CCN(C(=O)c2nn(C(C)C)c(=O)c3ccccc23)c2cc(Cl)ccc2S1` (configuration not stated), which “activity change, negative = inhibition” value is on record?
The value was inactive: -28%.

How did the “activity change, negative = inhibition” value turn out when `COc1ccccc1CC(=O)NC1CCN(c2cc(C(F)(F)F)nc(C)n2)CC1` was run?
The value was inactive: 8.78%.

Which Potency does the source give for `Cn1c(CCNS(=O)(=O)c2ccc(F)cc2)nnc1SCc1cccnc1` here?
The Potency was inconclusive: 100 µM [inhibitor, single point].

Which Potency does the source give for `CCCCNC(=O)c1onc(CSc2cccc(C)c2)c1C(=O)O` here?
Its Potency is inconclusive: 44.7 µM [inhibitor, partial curve, poor fit].

How did the Potency turn out when `COc1ccccc1C(CNC(=S)NCc1ccccc1)N1CCCC1` (configuration not stated) was run?
The Potency was inconclusive: 50.1 µM [inhibitor, single point].

For `Cc1cc(C(F)(F)F)c2c(n1)sc1c(O)cc(=O)[nH]c12`, which “activity change, negative = inhibition” value is on record?
Its value is inactive: -8.94%.

`CN(C)C(=O)c1cc(-c2ccc(Cl)cc2Cl)c2cnn(C)c2n1` was tested. Which Potency did it give?
The Potency was inconclusive: 100 µM [inhibitor, partial curve, poor fit].

Which Potency does the source give for `O=C(O)CCCOc1ccc(C(=O)/C=C/c2ccc(C(=O)O)cc2)cc1` here?
The Potency was inconclusive: 0.178 µM [inhibitor, full curve, poor fit].

For `Cc1nc(Cc2nnc(SCC(=O)N3CCN(c4ccccc4)CC3)o2)cs1`, which Potency is on record?
Its Potency is inconclusive: 39.8 µM [inhibitor, partial curve, poor fit].

For `CC(C)C(C)(C#N)NC(=O)CSc1nc2scc(-c3ccco3)c2c(=O)n1-c1ccccc1` (configuration not stated), which Potency is on record?
Its Potency is inconclusive: 31.6 µM [inhibitor, partial curve, poor fit].

With `COc1cc(-c2n[nH]c(=S)n2-c2ccc(C)cc2)cc(OC)c1OC` as the compound, how does the Potency read?
The Potency was inconclusive: 50.1 µM [inhibitor, partial curve, poor fit].

For `COc1ccc2oc(C(=O)OCC(=O)NCc3ccccc3OC)c(C)c2c1`, which Potency is on record?
The Potency was inconclusive: 35.5 µM [inhibitor, partial curve, poor fit].

Which “activity change, negative = inhibition” value does the source give for `O=C(O)C[C@@H]1CCN(C(=O)c2ccc(F)cc2)C[C@@H]1CCN1CCCCC1` here?
Its value is inactive: 22.1% [at 176 µM].

`CNC(=O)c1cccc(NC(=O)CSCc2csc(-c3ccc(C(C)C)cc3)n2)c1` was tested. Which “activity change, negative = inhibition” value did it give?
Its value is inactive: 7.26%.

With `Nc1ccccc1SCc1csc(-c2ccc(Cl)cc2)n1` as the compound, how does the Potency read?
The Potency was inconclusive: 17.8 µM [inhibitor, full curve].

How did the Potency turn out when `COc1cccc(C2CNC3(CCCC(C)C3)c3[nH]c4ccccc4c32)c1OC` (configuration not stated) was run?
Its Potency is inconclusive: 112 µM [inhibitor, single point].

`Cc1c(C(=O)N2CCCCCC2)c(S(=O)(=O)NCc2ccc(Br)cc2)c(C)n1C` was tested. Which “activity change, negative = inhibition” value did it give?
The value was inactive: -16.2%.

How did the Potency turn out when `O=C(c1ccc(C=Cc2n[nH]c3ccccc23)cc1)N1CCNCC1` was run?
Its Potency is inconclusive: 1.93 µM [inhibitor, full curve, poor fit].

For `COc1ccc(-c2cnc(CCC(=O)N3CCS(=O)CC3)o2)cc1`, which “activity change, negative = inhibition” value is on record?
The value was inactive: -31.7%.

For `C/C(=C\c1ccc2c(c1)OCO2)C(=O)c1c(C)cc(C)[nH]c1=O`, which “activity change, negative = inhibition” value is on record?
The value was inactive: -3.66%.

With `C=CCN=C1NC(c2cccc(C(F)(F)F)c2)C(C(=O)OC)=C(C)N1C` (configuration not stated) as the compound, how does the Potency read?
Its Potency is inconclusive: 50.1 µM [inhibitor, partial curve, poor fit].

`CCOc1ccc(-c2cc(C(=O)NCc3ccc(F)cc3)[nH]n2)c(C)c1` was tested. Which Potency did it give?
The Potency was inconclusive: 141 µM [inhibitor, partial curve, poor fit].

Which Potency does the source give for `COc1ccc(-c2cc(C(=O)Nc3ccc(S(=O)(=O)Nc4onc(C)c4C)cc3)c3ccccc3n2)cc1OC` here?
Its Potency is inconclusive: 39.8 µM [inhibitor, partial curve, poor fit].

Which “activity change, negative = inhibition” value does the source give for `Cc1ccc(C)c(NC(=S)NNC(=O)c2ccco2)c1` here?
The value was inactive: 27.6%.

`CCOc1ccccc1C(=O)Nc1ccccc1C(N)=O` was tested. Which “activity change, negative = inhibition” value did it give?
The value was inactive: -19%.

Which Potency does the source give for `COc1ccc(Cl)cc1NC(=O)C1Cc2ccccc2CN1S(C)(=O)=O` (configuration not stated) here?
The Potency was inconclusive: 39.8 µM [inhibitor, partial curve, poor fit].

With `CCc1ccc(NC(=O)Cn2c3[n+](c4c(F)c(F)ccc42)CCCCC3)cc1` as the compound, how does the Potency read?
Its Potency is inconclusive: 44.7 µM [inhibitor, partial curve, poor fit].

Which “activity change, negative = inhibition” value does the source give for `NC(=O)C(F)(F)C12OC3C4C5CC(C6C5C3C61)C42` (configuration not stated) here?
Its value is inactive: -18.7%.

How did the Potency turn out when `COc1ccc(Nc2cc(C(=O)NC3CCC(C)CC3)c3ccccc3n2)cc1OC` (configuration not stated) was run?
The Potency was inconclusive: 158 µM [inhibitor, partial curve, poor fit].

`CN(CCCC(=O)Nc1ccccc1F)S(=O)(=O)c1ccc(F)cc1` was tested. Which “activity change, negative = inhibition” value did it give?
The value was inactive: 15.3%.

How did the Potency turn out when `CC(NC(=O)C1CCN(C(=O)c2cccc3ccccc23)CC1)c1ccc(F)cc1` (configuration not stated) was run?
The Potency was inconclusive: 6.31 µM [inhibitor, full curve, poor fit].

How did the “activity change, negative = inhibition” value turn out when `CCOc1ccc(C2Nc3c(C)cccc3-c3cc(C)nn32)cc1` (configuration not stated) was run?
The value was inactive: -11%.

With `Oc1ccc2ccccc2c1CN1CCCC1` as the compound, how does the Potency read?
Its Potency is inconclusive: 39.8 µM [inhibitor, partial curve, poor fit].

How did the “activity change, negative = inhibition” value turn out when `O=C1COc2ccc(C(=O)CSc3nnc(NCc4ccccc4)s3)cc2N1` was run?
Its value is inactive: -4.34%.

Which “activity change, negative = inhibition” value does the source give for `COc1c(N2CCN(C(=S)Nc3ccc(F)cc3)C(C)C2)c(F)cc2c(=O)c(C(=O)O)cn(C3CC3)c12` (configuration not stated) here?
Its value is inactive: 7.39%.

`CC(=O)Nc1ccc(NC(=O)c2nn(CCC(C)C)c(=O)c3ccccc23)cc1` was tested. Which Potency did it give?
Its Potency is inconclusive: 79.4 µM [inhibitor, single point].

`COc1cc(Nc2ncnc(N)n2)cc(OC)c1OC` was tested. Which “activity change, negative = inhibition” value did it give?
The value was inactive: 10.1%.

For `COc1ccc([C@H]2CN(c3ccc(OC)cc3)C(=O)[C@@H]2CC(=O)Nc2ccccc2)cc1`, which Potency is on record?
Its Potency is inconclusive: 112 µM [inhibitor, partial curve, poor fit].

How did the “activity change, negative = inhibition” value turn out when `COc1ccc(C(=O)N/N=C/c2ccccc2OC(=O)c2ccccc2)cc1` was run?
Its value is inactive: -5.78%.

How did the Potency turn out when `FC(F)Oc1ccc(NC(=S)NCc2ccccc2)cc1` was run?
Its Potency is inconclusive: 56.2 µM [inhibitor, partial curve, poor fit].

How did the “activity change, negative = inhibition” value turn out when `NC(=O)Cc1csc(NC(=O)CCc2ncc(-c3ccc(F)cc3F)o2)n1` was run?
The value was inactive: 10.6%.

Which Potency does the source give for `Cc1cc(NC(=O)Nc2c(C3=CCCCC3)c(C)nn2C)ccc1Br` here?
Its Potency is inconclusive: 100 µM [inhibitor, single point].

How did the “activity change, negative = inhibition” value turn out when `O=C(CN1C(=O)c2ccccc2C1=O)OCC(=O)N1CCc2ccccc2C1` was run?
The value was inactive: -0.252%.

Which “activity change, negative = inhibition” value does the source give for `Cn1cc(C2c3nccn3CCCN2C(=O)c2ncccc2F)cn1` (configuration not stated) here?
Its value is inactive: 11.4%.

`Cc1sc2nc(C3CC3)nc(N3CCN(C(=O)c4ccc(F)cc4)CC3)c2c1C` was tested. Which “activity change, negative = inhibition” value did it give?
The value was inactive: 1.43%.

How did the Potency turn out when `CC(=O)NC(c1ccccc1)c1nc(-c2cccc(C(=O)O)c2)cs1` (configuration not stated) was run?
Its Potency is inconclusive: 39.8 µM [inhibitor, partial curve, poor fit].

How did the Potency turn out when `COc1ccccc1-c1ccc(CN2CCCC(c3nc4ccc(C)cc4c(=O)[nH]3)C2)cc1` (configuration not stated) was run?
Its Potency is inconclusive: 17.8 µM [inhibitor, full curve] and inconclusive: 7.08 µM [inhibitor, full curve].

`O=C(COc1ccc(F)cc1)N1CCC(c2noc(-c3ccncc3)n2)C1` (configuration not stated) was tested. Which “activity change, negative = inhibition” value did it give?
The value was inactive: -4.37%.

`Cc1cc(NC(=O)c2ccc(Cl)cc2F)n(CCC#N)n1` was tested. Which “activity change, negative = inhibition” value did it give?
Its value is inactive: -2.44%.

Which “activity change, negative = inhibition” value does the source give for `c1ccc(NCCc2ccccn2)cc1` here?
The value was inactive: -23.3%.

With `Cc1ccccc1CC(=O)NCC(C)C` as the compound, how does the “activity change, negative = inhibition” value read?
The value was inactive: -5.05%.

With `CCN(CC)C(=O)c1cccc(-c2csc(C(C)(O)c3ccccc3)n2)c1` (configuration not stated) as the compound, how does the “activity change, negative = inhibition” value read?
The value was inactive: -17.3%.

How did the Potency turn out when `O=C1OCC(CO)(CO)N=C1NNc1cc(Cl)ccc1Cl` was run?
Its Potency is inconclusive: 12.6 µM [inhibitor, full curve, poor fit].

Which “activity change, negative = inhibition” value does the source give for `CCCOc1c(Br)cc(C(=O)OCC(=O)c2cc(C)c(C)cc2C)cc1OC` here?
Its value is inactive: 6.51%.

How did the “activity change, negative = inhibition” value turn out when `CCc1ccc(NCc2nc(-c3ccccc3)no2)cc1` was run?
Its value is inactive: -17.9%.

`CCCCCC(=O)Nc1cccc(C2=NOC3(C2)C[C@H](C(N)=O)N(C(=O)COc2ccc(Cl)cc2)C3)c1` (some centres not stated) was tested. Which “activity change, negative = inhibition” value did it give?
Its value is inactive: -21.4%.
